Results as given in paper PMC6896172, “Successful Targeting of the Warburg Effect in Prostate Cancer by Glucose-Conjugated 1,4-Naphthoquinones” (Cancers, 2019).

Tested on: 22Rv1 cells
Assay: Global proteome analysis (LC-MS/MS, DIA) of differentially expressed proteins
Type: cell-based, human
Conditions: 5 µM, 48 h
Procedure: 22Rv1 cells were seeded in T75 culture bottles (4 × 10^6 cells/bottle in 20 mL/bottle), treated for 48 h with the 5 µM of compound 11 or vehicle (DMSO), harvested by scratching, washed twice with ice-cold PBS and flash-frozen. Cells were lysed and sonicated. The protein extracts were then heat-denaturated, reduced, alkylated and digested by trypsin. Peptides were chromatographically separated using full recovery autosampler vials and a nano-UPLC system (Acquity, Waters Corporation, Milford, MS, USA), coupled via electrospray ionization (ESI) to a tandem mass spectrometer equipped with a quadrupole and an orbitrap (QExactive, Thermo Fisher Scientific, Bremen, Germany), using MS/MS mode in data dependent acquisition (DDA) and data independent acquisition (DIA). The peptides, analyzed with DDA-LC-MS/MS, were identified with the search engine Sequest, integrated in the Proteome Discoverer software version 2.0 (Thermo Fischer Scientific) using the human Uniprot protein database (EMBL; Hinxton Cambridge, UK, release December 2018). […] For the details of sample preparation and proceeding, data acquisition and analysis see the Supplementary information. […]
serum (FBS, Invitrogen) and 1% penicillin/streptomycin (Invitrogen)). […]
0.1% FA in Acetonitrile (ACN), both at pH = 3). […] The eluting peptides were analyzed on a quadrupole-orbitrap mass spectrometer (QExactive, Thermo Fisher Scientific, Bremen, Germany) in data dependent acquisition (DDA) and data independent acquisition (DIA) for quantification.
In DDA mode, one replicate of each cell line was randomly chosen and 1 µg per sample was used per LC-MS/MS run to build a reference spectral library used for data extraction of samples acquired in DIA mode. For DDA, the 12 most intense ions per precursor scan (1 × 10 6 ions, 70,000 Resolution, 120 ms fill time) were analyzed by MS/MS (HCD at 25 normalized collision energy, 1 × 105 ions, 17,500 Resolution, 50 ms fill time) in a range of 400–1300 m/z. […] For DIA, 1 µg of each sample was analyzed using a 30 sequential 20 Da fixed window method covering the mass range from 400 –1000 m/z. […]

CC1(C)OC2OC(C(O)COC3=CC(=O)c4cccc(O)c4C3=O)C(O)C2O1 (stereo not drawn) [Compound 11]
number of proteins with decreased expressional levels (downregulation): 182 | number of proteins with increased expressional levels (upregulation): 92 | number of significantly regulated proteins (1.5 ≤ fold change ≤ 1/1.5, p ≤ 0.05) (2163 proteins quantified): 274
